Results published in PubChem BioAssay AID328 (DTP/NCI, 2004).
The list does not hold the whole screen: it is rich in T/C values a quarter to a half above the control, in often repeated tests (any T/C) and in doses without a T/C. Other doses and runs of a compound stand elsewhere. T/C is the treated group as % of the vehicle group. Some entries give survivors of the animals treated and no T/C: the source files T/C as zero there, which appears to mark a toxic dose or a test without result, not a measured value. Some doses without a T/C left all or most animals alive at the check, yet need not have been tolerated: the source hardly ever lists a survival T/C far under the control, and the zero likely stands for such cases as well. Survivors were counted at the toxicity check, usually on the fifth day, unless a day is given; later deaths do not show. Schedule codes are those of the source, taken here to give the interval after Q, in days (D) or hours (H), and the number of doses after X. For survival time, the PubChem record calls one and a half times the control and up active, and a quarter to a half above the control has no call in these data; cut-offs in other NCI protocols can differ. Some entries hold several experiments; the values are given in rising order. Some T/C values carry the count of animals alive at the toxicity check (mostly the fifth day); where none is given, no animal had died by that day.

Tested on: BDF1 mice, P388 leukemia ip, median survival T/C
Assay: NCI In Vivo Anticancer Drug Screen. Data for tumor model P388 Leukemia (intraperitoneal) in B6D2F1 (BDF1) mice
Conditions: T/C endpoint: median survival time, higher T/C = longer survival
Summary of the method: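 T/C = treated-group survival ÷ vehicle-control survival; tumour transplanted into mice before dosing.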

[1] = dose: 50.0 mg/kg/injection, schedule: Q01DX009 (ip), vehicle: saline
[2] = dose: 132.0 mg/kg/injection, schedule: Q04DX003 (ip), vehicle: saline with Tween-80
[3] = dose: 200.0 mg/kg/injection, schedule: Q01DX009 (ip), vehicle: Klucel (hydroxypropylcellulose) (HPC)
[4] = dose: 200.0 mg/kg/injection, schedule: Q01DX009 (ip), vehicle: saline with Tween-80
[5] = dose: 100.0 mg/kg/injection, schedule: Q01DX009 (ip), vehicle: saline
[6] = dose: 132.0 mg/kg/injection, schedule: Q04DX003 (ip), vehicle: Klucel (hydroxypropylcellulose) (HPC)

`CCC(=O)NC1=C(N2CC2)C(=O)C(NC(=O)CC)=C(N2CC2)C1=O` was tested, and the T/C (dose: 0.5 mg/kg/injection, schedule: Q01DX009 (ip), vehicle: saline) was 138 and 140 % of control.

`CC(C)(C)C1CC[N-]CC1.CC(C)(C)C1CC[N-]CC1.[Cl][Pt+2]([Cl])([Cl])[Cl]` was tested, and the T/C (dose: 6.25 mg/kg/injection, schedule: Q01DX009 (ip), vehicle: saline) was 130 % of control, the T/C (dose: 12.5 mg/kg/injection, schedule: Q01DX009 (ip), vehicle: saline) was 127 and 131 % of control and the survivor count (dose: 25.0 mg/kg/injection, schedule: Q01DX009 (ip), vehicle: saline) was 3 of 6. The survivor count [1] was 1 of 6.

In the case of `NC(CSCc1ccc(N(CCCl)CCCl)cc1)C(=O)O` (stereo unspecified), the T/C (dose: 1.8 mg/kg/injection, schedule: Q04DX003 (ip), vehicle: Klucel (hydroxypropylcellulose) (HPC)) is reported as 125 % of control, the T/C (dose: 2.6 mg/kg/injection, schedule: Q04DX003 (ip), vehicle: Klucel (hydroxypropylcellulose) (HPC)) is reported as 129 % of control and the T/C (dose: 4.0 mg/kg/injection, schedule: Q04DX003 (ip), vehicle: Klucel (hydroxypropylcellulose) (HPC)) is reported as 141 % of control. The survivor count (dose: 100.0 mg/kg/injection, schedule: Q01DX009 (ip), vehicle: Klucel (hydroxypropylcellulose) (HPC)) was 6 of 6, the survivor count [2] was 5 of 6 and the survivor count [3] was 6 of 6. The survivor count (dose: 200.0 mg/kg/injection, schedule: Q04DX003 (ip), vehicle: saline with Tween-80) was 6 of 6 and the survivor count (dose: 300.0 mg/kg/injection, schedule: Q04DX003 (ip), vehicle: saline with Tween-80) was 6 of 6.

In the case of `COc1cc2oc(-c3ccc(O)cc3O)c(CC=C(C)C)c(=O)c2c(O)c1/C=C/C(C)C`, the T/C (dose: 6.25 mg/kg/injection, schedule: Q01DX009 (ip), vehicle: Klucel (hydroxypropylcellulose) (HPC)) is reported as 126 % of control.

For `O=C(Nc1cccc2ccccc12)N1c2ccccc2SC12CCCC2`, the survivor count (dose: 50.0 mg/kg/injection, schedule: Q01DX009 (ip), vehicle: saline with Tween-80) was 6 of 6 and the survivor count [4] was 6 of 6.

With `Cc1cc(N(CCCl)CCCl)ccc1C=Nc1ccccc1-c1ccccc1` the T/C [3] was 133 % of control, the T/C (dose: 267.0 mg/kg/injection, schedule: Q01DX009 (ip), vehicle: Klucel (hydroxypropylcellulose) (HPC)) was 126 % of control and the T/C (dose: 400.0 mg/kg/injection, schedule: Q04DX003 (ip), vehicle: Klucel (hydroxypropylcellulose) (HPC)) was 125 % of control.

With `OCC1CC[N-]CC1.OCC1CC[N-]CC1.[Cl][Pt+2]([Cl])([Cl])[Cl]` the survivor count (dose: 200.0 mg/kg/injection, schedule: Q04DX003 (ip), vehicle: saline) was 4 of 6.

For `C=CC(O)CN1CC1` (stereo unspecified), the T/C (dose: 5.0 mg/kg/injection, schedule: Q04DX003 (ip), vehicle: saline) was 137 % of control and the survivor count (dose: 20.0 mg/kg/injection, schedule: Q04DX003 (ip), vehicle: saline) was 4 of 6.

With `CCCCNC(C)(C)C(SSSC(c1cccs1)C(C)(C)NCCCC)c1cccs1` (stereo unspecified) the T/C (dose: 100.0 mg/kg/injection, schedule: Q04DX003 (ip), vehicle: saline with Tween-80) was 127 % of control.

`CC(C)C(C=O)C(O)(C(F)(F)F)C(F)(F)Cl` (stereo unspecified) was tested, and the survivor count [1] was 6 of 6.

With `CC(C)(CCC(C)(C)NCCC#N)NCCC#N` the T/C [5] was 128 % of control [5 of 6 alive].

`CSc1nc(N)nc2nc[nH]c12` was tested, and the survivor count [4] was 3 of 6.

In the case of `CC(=O)CC(C)=O.CC(=O)CC(C)=O.CC(C)c1ncc[nH]1.O=N[O-].[Co]`, the T/C (dose: 400.0 mg/kg/injection, schedule: Q04DX002 (ip), vehicle: saline with Tween-80) is reported as 125 % of control.

For `CC(C)(C)NC(C1=CC(C)(C)c2ccccc2C1=O)c1ccccc1` (stereo unspecified), the T/C (dose: 400.0 mg/kg/injection, schedule: Q01DX009 (ip), vehicle: Klucel (hydroxypropylcellulose) (HPC)) was 130 % of control.

For `COc1cc([C@@H]2c3cc4c(cc3[C@@H](OC3OC5CO[C@@H](c6cccs6)OC5C(O)C3O)[C@H]3COC(=O)[C@H]23)OCO4)cc(OC)c1O` (stereo partly specified), the survivor count (dose: 4.0 mg/kg/injection, schedule: Q01DX010 (ip), vehicle: saline) was 6 of 6.

With `COC(=O)/C(C)=C/C1N=C1c1ccccc1` (stereo unspecified) the survivor count (dose: 200.0 mg/kg/injection, schedule: Q01DX001 (ip), vehicle: saline with Tween-80) was 1 of 6 and the survivor count (dose: 400.0 mg/kg/injection, schedule: Q01DX001 (ip), vehicle: saline with Tween-80) was 0 of 6.

For `C1CCC2C(C1)NC1CCCCC12` (stereo unspecified), the survivor count [5] was 3 of 6.

For `O=C(O)CNC1CSSC1`, the T/C (dose: 12.5 mg/kg/injection, schedule: Q01DX009 (ip), vehicle: water) was 128 % of control, the T/C (dose: 100.0 mg/kg/injection, schedule: Q01DX009 (ip), vehicle: water) was 128 % of control [5 of 6 alive] and the survivor count (dose: 200.0 mg/kg/injection, schedule: Q01DX009 (ip), vehicle: water) was 3 of 6. The survivor count (dose: 400.0 mg/kg/injection, schedule: Q01DX009 (ip), vehicle: water) was 0 of 6.

With `CCOc1ccc(Br)cc1/C=N/NS(=O)(=O)c1ccc(C)cc1` the T/C (dose: 400.0 mg/kg/injection, schedule: Q04DX003 (ip), vehicle: saline with Tween-80) was 127 % of control.

In the case of `C[N+](C)(CC(=O)Nc1ccc(Cl)c(Cl)c1)Cc1ccc(Cl)c(Cl)c1`, the survivor count (dose: 25.0 mg/kg/injection, schedule: Q01DX009 (ip), vehicle: saline with Tween-80) is reported as 3 of 6.

`CNC(=S)N1N=C(C)CC1=O` was tested, and the survivor count (dose: 150.0 mg/kg/injection, schedule: Q01DX009 (ip), vehicle: saline with Tween-80) was 2 of 6.

In the case of `O=S1(=O)C=CCCC=C1`, the survivor count [3] is reported as 0 of 6.

In the case of `Ic1ncnc2c1ncn2C1CCCO1` (stereo unspecified), the T/C (dose: 100.0 mg/kg/injection, schedule: Q01DX009 (ip), vehicle: saline sonified) is reported as 138 % of control [5 of 6 alive].

In the case of `N=C(N)SCc1c2ccccc2cc2ccccc12`, the T/C (dose: 88.0 mg/kg/injection, schedule: Q04DX003 (ip), vehicle: Klucel (hydroxypropylcellulose) (HPC)) is reported as 127 % of control, the T/C [6] is reported as 131 % of control and the T/C [2] is reported as 145 % of control. The T/C (dose: 200.0 mg/kg/injection, schedule: Q04DX003 (ip), vehicle: Klucel (hydroxypropylcellulose) (HPC)) was 136 % of control and the T/C (dose: 300.0 mg/kg/injection, schedule: Q04DX003 (ip), vehicle: Klucel (hydroxypropylcellulose) (HPC)) was 145 % of control.

With `C[C@@H]1C[C@@]2(O[C@@H]2C)C(=O)O[C@@H]2CCN3CC=C(COC(=O)[C@]1(C)O)[C@H]23` the survivor count (dose: 80.0 mg/kg/injection, schedule: Q01DX010 (ip), vehicle: carboxymethylcellulose (CMC)) was 2 of 6.

For `COc1cc(NC(=O)CN(CCCl)CCCl)cc(OC)c1OC`, the T/C (dose: 15.0 mg/kg/injection, schedule: Q04DX003 (ip), vehicle: Klucel (hydroxypropylcellulose) (HPC)) was 135 % of control, the T/C (dose: 30.0 mg/kg/injection, schedule: Q04DX003 (ip), vehicle: Klucel (hydroxypropylcellulose) (HPC)) was 125 % of control and the T/C [6] was 140 % of control.

With `O=C(O)C1CC2C=CC1C2` (stereo unspecified) the survivor count (dose: 400.0 mg/kg/injection, schedule: Q01DX009 (ip), vehicle: saline with Tween-80) was 1 of 6.

In the case of `CCC[CH2][Sn]1([CH2]CCC)[O]OC(c2ccccc2)[O]1` (stereo unspecified), the T/C (dose: 2.0 mg/kg/injection, schedule: Q01DX009 (ip), vehicle: saline with Tween-80) is reported as 142 % of control, the survivor count (dose: 3.3 mg/kg/injection, schedule: Q01DX009 (ip), vehicle: other) is reported as 5 of 6 and the survivor count (dose: 5.0 mg/kg/injection, schedule: Q01DX009 (ip), vehicle: other) is reported as 5 of 6. For the same compound, the survivor count (dose: 5.0 mg/kg/injection, schedule: Q04DX003 (ip), vehicle: other) was 2 of 6, the T/C (dose: 6.0 mg/kg/injection, schedule: Q01DX009 (ip), vehicle: saline with Tween-80) was 140 % of control and the survivor count (dose: 7.5 mg/kg/injection, schedule: Q01DX009 (ip), vehicle: other) was 0 of 6. For the same compound, the survivor count (dose: 10.0 mg/kg/injection, schedule: Q04DX003 (ip), vehicle: other) was 0 of 6 and the survivor count (dose: 20.0 mg/kg/injection, schedule: Q01DX009 (ip), vehicle: saline with Tween-80) was 1 of 6.

In the case of `CC1CN=C(c2ccc(NC(=O)Nc3ccc(C(=O)Nc4ccc(C5=NCC(C)N5)cc4)cc3)cc2)N1` (stereo unspecified), the survivor count (dose: 150.0 mg/kg/injection, schedule: Q04DX003 (ip), vehicle: saline with Tween-80) is reported as 1 of 6.

For `COc1cc2ccc3ccncc3c2cc1OC`, the survivor count [5] was 1 of 6.
